The numbers were not newly measured in article PMC9673116 (Poultry Science, 2022), which cites them from elsewhere.

The data set has as its system chicken BCRP. The note with it: ref Zhang et al., 2018; cited from earlier work.

For the compound `CCC[C@@H]1C[C@@H](C(=O)N[C@@H]([C@H]2O[C@H](SC)[C@H](O)[C@@H](O)[C@H]2O)[C@H](C)Cl)N(C)C1` [clindamycin], the “Transport by chicken BCRP” value is “actively transported”.
